In patent US20190117751A1 (SAPPORO MEDICAL UNIVERSITY, published 2019):
Results are given in words; binding and its absence hold for the method and conditions named. Binding calls can cover weak binding; strength is not graded here.

Biological target: HLA-A24 molecule on the cell surface (HLA-A*2402) (human)
Experiment: not clear: FIG. 8 has no binding assay panel

- binding: binds
Binder: VYTYIQSRF [DYRK4-derived natural peptide of SEQ ID No: 5 (…)]
